Assay results from PMC8571288.
For some assays here: No signal at the amounts used counts as a negative. For some assays here: The exact form of at least one protein or probe is not confirmed. For some assays here: A weaker result is weaker than the reference pair of the same experiment. For some assays here: At least one verdict rests on a figure or table, not on a statement of the authors.

Chains of the proteins cited; added tags and fusions are not shown. Lines headed by an entry give the natural chain unless they say otherwise; changes in a name come on top. A line that says so, or that is headed by a name, gives the form on record, which may keep a tag or linker.
UniProt Q06609, whole entry: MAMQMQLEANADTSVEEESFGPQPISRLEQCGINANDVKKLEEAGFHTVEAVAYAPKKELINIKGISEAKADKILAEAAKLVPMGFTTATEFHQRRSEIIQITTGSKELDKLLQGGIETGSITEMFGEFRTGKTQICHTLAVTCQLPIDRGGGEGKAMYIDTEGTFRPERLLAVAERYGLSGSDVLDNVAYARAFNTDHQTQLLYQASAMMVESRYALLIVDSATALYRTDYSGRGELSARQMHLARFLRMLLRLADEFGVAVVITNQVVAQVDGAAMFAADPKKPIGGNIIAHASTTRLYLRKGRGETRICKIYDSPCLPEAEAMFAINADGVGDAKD
UniProt P0A7G6: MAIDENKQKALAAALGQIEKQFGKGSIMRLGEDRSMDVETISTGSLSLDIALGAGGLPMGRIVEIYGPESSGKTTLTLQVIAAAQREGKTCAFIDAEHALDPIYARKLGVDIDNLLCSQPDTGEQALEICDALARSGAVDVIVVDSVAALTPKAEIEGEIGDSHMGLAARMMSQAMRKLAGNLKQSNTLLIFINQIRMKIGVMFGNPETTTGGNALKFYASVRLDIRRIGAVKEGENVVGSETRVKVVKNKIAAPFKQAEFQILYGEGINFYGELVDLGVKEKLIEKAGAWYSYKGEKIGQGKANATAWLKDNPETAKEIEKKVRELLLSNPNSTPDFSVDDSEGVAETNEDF
UniProt P0AGE0: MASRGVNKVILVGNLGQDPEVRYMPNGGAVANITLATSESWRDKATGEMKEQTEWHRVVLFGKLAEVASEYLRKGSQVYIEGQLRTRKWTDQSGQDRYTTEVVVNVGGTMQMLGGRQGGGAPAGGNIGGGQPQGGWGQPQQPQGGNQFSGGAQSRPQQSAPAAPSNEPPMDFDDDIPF
EGFP-RPA (Homo sapiens), one chain, as listed by the source, chain 2 of 3: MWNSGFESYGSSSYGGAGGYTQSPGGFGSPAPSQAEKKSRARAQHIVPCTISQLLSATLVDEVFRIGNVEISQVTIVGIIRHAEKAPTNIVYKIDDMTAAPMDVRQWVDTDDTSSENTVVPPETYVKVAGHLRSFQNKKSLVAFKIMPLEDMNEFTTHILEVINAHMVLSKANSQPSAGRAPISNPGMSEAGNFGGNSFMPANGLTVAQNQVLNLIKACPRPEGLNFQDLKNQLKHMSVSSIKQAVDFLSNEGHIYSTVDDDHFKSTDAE
CST complex (CTC1-STN1-TEN1) (Homo sapiens), one chain, as listed by the source, chain 2 of 3: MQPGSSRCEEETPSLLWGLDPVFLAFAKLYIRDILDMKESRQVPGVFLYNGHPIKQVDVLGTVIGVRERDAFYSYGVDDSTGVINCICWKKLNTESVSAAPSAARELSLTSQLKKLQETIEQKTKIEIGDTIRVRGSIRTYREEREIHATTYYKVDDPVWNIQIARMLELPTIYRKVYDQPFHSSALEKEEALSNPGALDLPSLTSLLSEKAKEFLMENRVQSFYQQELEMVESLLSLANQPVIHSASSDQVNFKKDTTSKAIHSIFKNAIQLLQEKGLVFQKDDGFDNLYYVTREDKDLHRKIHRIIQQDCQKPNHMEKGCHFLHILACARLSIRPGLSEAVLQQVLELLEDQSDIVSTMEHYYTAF
EGFP-RPA (Homo sapiens), one chain, as listed by the source, chain 3 of 3: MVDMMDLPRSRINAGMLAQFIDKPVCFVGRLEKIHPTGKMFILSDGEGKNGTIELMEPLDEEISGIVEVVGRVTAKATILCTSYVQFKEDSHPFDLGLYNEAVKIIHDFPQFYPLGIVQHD
CST complex (CTC1-STN1-TEN1) (Homo sapiens), one chain, as listed by the source, chain 1 of 3: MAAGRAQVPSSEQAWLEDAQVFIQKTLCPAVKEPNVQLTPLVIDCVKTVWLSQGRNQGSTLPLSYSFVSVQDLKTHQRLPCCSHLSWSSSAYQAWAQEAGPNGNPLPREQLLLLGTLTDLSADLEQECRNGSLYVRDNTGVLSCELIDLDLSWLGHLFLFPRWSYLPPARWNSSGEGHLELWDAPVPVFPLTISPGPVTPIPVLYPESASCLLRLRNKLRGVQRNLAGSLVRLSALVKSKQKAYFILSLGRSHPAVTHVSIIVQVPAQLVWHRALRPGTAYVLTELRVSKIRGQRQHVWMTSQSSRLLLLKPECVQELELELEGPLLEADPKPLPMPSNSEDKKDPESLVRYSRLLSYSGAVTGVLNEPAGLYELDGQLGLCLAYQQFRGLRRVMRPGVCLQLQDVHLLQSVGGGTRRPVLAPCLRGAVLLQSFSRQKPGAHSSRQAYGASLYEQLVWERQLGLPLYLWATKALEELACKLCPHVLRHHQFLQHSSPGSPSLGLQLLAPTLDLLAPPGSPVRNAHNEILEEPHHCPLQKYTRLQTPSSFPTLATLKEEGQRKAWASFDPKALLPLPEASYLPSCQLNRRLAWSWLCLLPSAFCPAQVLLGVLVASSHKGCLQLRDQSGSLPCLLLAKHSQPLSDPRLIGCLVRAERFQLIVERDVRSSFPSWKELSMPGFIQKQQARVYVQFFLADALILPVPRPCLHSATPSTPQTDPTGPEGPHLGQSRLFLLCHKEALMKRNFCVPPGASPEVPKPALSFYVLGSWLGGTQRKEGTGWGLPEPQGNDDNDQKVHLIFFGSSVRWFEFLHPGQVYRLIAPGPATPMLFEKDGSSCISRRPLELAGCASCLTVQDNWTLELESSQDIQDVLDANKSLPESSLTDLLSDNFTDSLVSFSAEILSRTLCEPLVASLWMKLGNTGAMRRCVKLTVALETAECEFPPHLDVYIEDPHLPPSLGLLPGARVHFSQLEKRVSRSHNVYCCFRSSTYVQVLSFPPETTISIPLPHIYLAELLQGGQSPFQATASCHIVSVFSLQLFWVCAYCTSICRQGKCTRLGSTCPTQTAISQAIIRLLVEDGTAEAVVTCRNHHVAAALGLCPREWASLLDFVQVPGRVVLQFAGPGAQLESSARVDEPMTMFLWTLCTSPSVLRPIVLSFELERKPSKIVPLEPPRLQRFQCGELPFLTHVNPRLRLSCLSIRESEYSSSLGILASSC
CST complex (CTC1-STN1-TEN1) (Homo sapiens), one chain, as listed by the source, chain 3 of 3: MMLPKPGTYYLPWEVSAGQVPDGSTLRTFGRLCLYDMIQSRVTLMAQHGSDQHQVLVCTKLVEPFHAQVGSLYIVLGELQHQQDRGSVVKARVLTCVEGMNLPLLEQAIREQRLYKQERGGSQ

Tests used:
RAD51 (Homo sapiens) [1] = biological target: RAD51 (Homo sapiens) (UniProt Q06609); experiment: negative-stain EM; conditions: 150 mM KCl, RPA-coated DNA, median filament 67.83 nm; smFRET: 25 mM Tris-HCl pH 7.5, 0.5 mM EDTA, 10% glycerol, 50 or 150 mM KCl (temperature not stated); recombinant protein; single-stranded DNA
RecA (E. coli) = RecA (E. coli) (UniProt P0A7G6); experiment: pull-down; conditions: RPA-coated DNA plus CST, 50 mM KCl; pull-down: 35 mM Tris-HCl pH 7.5, 10% glycerol, 0.01% Igepal, 1 mM 2-ME, 1 mM ATP, 2.5 mM MgCl2, 50 or 150 mM KCl, 37 C; commercial protein; label: 5' biotin, on streptavidin beads; single-stranded DNA
[2] = tested on: CST complex (CTC1-STN1-TEN1) (Homo sapiens); experiment: pull-down; conditions: RPA-coated DNA, 150 mM KCl; pull-down: 35 mM Tris-HCl pH 7.5, 10% glycerol, 0.01% Igepal, 1 mM 2-ME, 1 mM ATP, 2.5 mM MgCl2, 50 or 150 mM KCl, 37 C; recombinant protein; protein details: FLAG-CTC1, TEN1-His6; label: 5' biotin, on streptavidin beads; single-stranded DNA
RAD51 (Homo sapiens) [3] = biological target: RAD51 (Homo sapiens) (UniProt Q06609); experiment: pull-down; conditions: pull-down: 35 mM Tris-HCl pH 7.5, 10% glycerol, 0.01% Igepal, 1 mM 2-ME, 1 mM ATP, 2.5 mM MgCl2, 50 or 150 mM KCl, 37 C, recombinant protein, label: 5' biotin, on streptavidin beads, single-stranded DNA
SSB (E. coli) = SSB (E. coli) (UniProt P0AGE0); experiment: pull-down; conditions: RPA-coated DNA, 50 mM KCl; pull-down: 35 mM Tris-HCl pH 7.5, 10% glycerol, 0.01% Igepal, 1 mM 2-ME, 1 mM ATP, 2.5 mM MgCl2, 50 or 150 mM KCl, 37 C; commercial protein; label: 5' biotin, on streptavidin beads; single-stranded DNA
[4] = tested on: CST complex (CTC1-STN1-TEN1) (Homo sapiens); experiment: EMSA; conditions: 50 mM KCl, EMSA: 35 mM Tris-HCl pH 7.5, 1 mM DTT, 2.5 mM MgCl2, 100 ng/uL BSA, 37 C, recombinant protein, protein details: FLAG-CTC1, TEN1-His6, label: 5' Cy3, single-stranded DNA
EGFP-RPA (Homo sapiens) = experiment: EMSA; conditions: 50 mM KCl, like native RPA, EMSA: 35 mM Tris-HCl pH 7.5, 1 mM DTT, 2.5 mM MgCl2, 100 ng/uL BSA, 37 C, recombinant protein, protein details: EGFP, label: 5' Cy3, single-stranded DNA
[5] = tested on: SNAP649-CST (Homo sapiens); experiment: EMSA; conditions: 50 mM KCl, like native CST, EMSA: 35 mM Tris-HCl pH 7.5, 1 mM DTT, 2.5 mM MgCl2, 100 ng/uL BSA, 37 C, recombinant protein, protein details: SNAP (SNAP-Surface 649 label), label: 5' Cy3, single-stranded DNA
[6] = tested on: RPA complex (Homo sapiens); experiment: EMSA; conditions: 50 mM KCl, EMSA: 35 mM Tris-HCl pH 7.5, 1 mM DTT, 2.5 mM MgCl2, 100 ng/uL BSA, 37 C, recombinant protein, label: 5' Cy3, single-stranded DNA

“TTATGTTCATTTTTTATATCCTTTACTTTATTTTCTCTGTTTATTCATTTACTTATTTTGTATTATCCTTATCTTATTTA [80-nt ssDNA Oligo 1]”: binds more weakly (RAD51 (Homo sapiens) [1]).

“TTATGTTCATTTTTTATATCCTTTACTTTATTTTCTCTGTTTATTCATTTACTTATTTTGTATTATCCTTATCTTATTTA [80-nt ssDNA, biotinylated Oligo 1]”: no binding (RecA (E. coli)); no binding [2]; no binding (RAD51 (Homo sapiens) [3]; RPA-coated DNA plus CTC1Δ700N-ST). “TTATGTTCATTTTTTATATCCTTTACTTTATTTTCTCTGTTTATTCATTTACTTATTTTGTATTATCCTTATCTTATTTA [80-nt ssDNA, biotinylated Oligo 1]”: no binding (RAD51 (Homo sapiens) [3]; RPA-coated DNA, no CST); binds (RAD51 (Homo sapiens) [3]; bare DNA (lane 3 vs 7)); no binding (SSB (E. coli)).

“TTAGAGCTTAATTGCTGAATCTGGTGCTGTGGGTGAACCTGCAGGTGGGCAAAGA [Cy3-Oligo 4 (55 nt)]”: binds [4]; binds (EGFP-RPA (Homo sapiens)); binds [5]. “TTAGAGCTTAATTGCTGAATCTGGTGCTGTGGGTGAACCTGCAGGTGGGCAAAGA [Cy3-Oligo 4 (55 nt)]”: binds [6].
